Experimental data from publication PMC12431657, “Discovery and mechanistic insights of dibenzoylmethane as a broad spectrum inhibitor of coronavirus” (PLOS Pathogens, 2025).
Where a name gives a salt, the structure may show the parent alone. Read-outs that look alike come from different tables or passages of the source. Hit rate of the full screen: of about 3,300 compounds, about 60 (2%) showed an effect of 50% or more. The list shows a part of the results.

System: HCoV-OC43
Set-up: species or system RD; HTS, protection from HCoV-OC43 induced cell death, luminescent cell viability (CellCounting-Lite 2.0), inhibition rate
Conditions: 24 h post infection, 1 h compound pre-incubation, 10 µM, inhibitor

| Structure (SMILES) | OC43 Inhibition rate [%] | OC43 Inhibition rate (OC43 Inhibition rate, 24 h) [%] |
| --- | --- | --- |
| Oc1ccc(CC2NCCc3cc(O)c(O)cc32)cc1 (stereo not shown) [Higenamine (hydrochloride)] | 0.1 |  |
| C/C=C(/C)C(=O)O [Angelic acid] | -0.3 |  |
| CC1(C)CC[C@]2(C(=O)O)CC[C@]3(C)C(=CC[C@@H]4[C@@]5(C)CC[C@H](O[C@@H]6OC[C@H](O)[C@H](O)[C@H]6O[C@@H]6O[C@H](CO)[C@@H](O)[C@H](O)[C@H]6O)[C@@](C)(CO)[C@@H]5CC[C@]43C)[C@@H]2C1 [Cauloside C] | -1.5 |  |
| C=C[C@H]1[C@H](O[C@@H]2O[C@H](CO)[C@@H](O)[C@H](O)[C@H]2O)OC=C(C(=O)OC)[C@H]1CC=O [Secologanin] | -2.6 |  |
| C/C=C/C=C/C(=O)O [Sorbic acid] |  | -1.1 |
| NCCc1cc(O)c(O)c(O)c1 [5-Hydroxydopamine hydrochloride] | 7.7 |  |
| COc1c(CC=C(C)C)c(O)cc2oc(=O)c3c4ccc(O)cc4oc3c12 [Neoglycyrol] | 113.3 |  |
| O=Cc1cccc(O)c1 [3-Hydroxybenzaldehyde] | 0.6 |  |
| COc1cc2c(cc1OC)[C@H](C)NCC2 [Salsolidine] | 0.2 |  |
| NC(Cc1cccc(O)c1)C(=O)O (racemic) [DL-m-Tyrosine] | -0.3 |  |
| O=c1cc(-c2ccccc2)oc2cc(O[C@@H]3O[C@H](CO)[C@@H](O)[C@H](O)[C@H]3O)c(O)c(O)c12 [Oroxin A] | -1 |  |
| C=C(C)C(=O)Cc1c(OC)ccc2ccc(=O)oc12 [Murrayone] | -0.4 |  |
| C[Se]CC[C@H](N)C(=O)O [Selenomethionine] |  | 1.2 |
| O=C(O)CCCCCCCCCCCCC(=O)O [Tetradecanedioic acid] | -1.6 |  |
| O=c1cc(-c2ccc(O)cc2)oc2cc(O)cc(O)c12 [Apigenin] | 2 |  |
| CCCCCCCCCCCCCCC(O)C(=O)O (stereo not shown) [2-Hydroxypalmitic acid] | 0.1 |  |
| O=C1C[C@@H](c2ccc(O[C@@H]3O[C@H](CO)[C@@H](O)[C@H](O)[C@H]3O[C@H]3OC[C@@](O)(CO)[C@@H]3O)cc2)Oc2cc(O)ccc21 [Liquiritin apioside] | -0.2 |  |
| C=C(C)[C@H]1Cc2c(ccc3c2O[C@@H]2COc4cc(OC)c(OC)cc4[C@@H]2C3=O)O1 [Rotenone] | -1.8 |  |
| O=c1cc(-c2ccccc2)oc2cc(O)cc(O[C@@H]3O[C@H](CO)[C@@H](O)[C@H](O)[C@H]3O)c12 [Toringin] | -0.6 |  |
| CC(C)(O[C@@H]1O[C@H](CO)[C@@H](O)[C@H](O)[C@H]1O)[C@@H]1CC[C@](O)(CO)[C@H]2CC(=O)[C@@](C)(O)[C@@H]2C1 [Atractyloside A] | 0 |  |
| CC(C)=CCCC(C)CCO (stereo not shown) [Citronellol] | -0.8 |  |
| CC1(C)CCC[C@](C)([C@H]2CC[C@]3(C)[C@@H]2[C@H](O)C[C@@H]2[C@@]4(C)CC[C@H](O)C(C)(C)[C@@H]4[C@@H](O)C[C@]23C)O1 [Panaxatriol] | 12.5 |  |

| Structure (SMILES) | OC43 Inhibition rate [%] | OC43 Inhibition rate (OC43 Inhibition rate, 24 h) [%] |
| --- | --- | --- |
| COc1cc2ccc(=O)oc2c(OC)c1OC [Dimethylfraxetin] | -0.5 |  |
| CC1(C)COC(=O)C1O (racemic) [DL-Pantolactone] | -0.5 |  |
| C=CCc1ccc(OC(C)=O)c(OC)c1 [Eugenol acetate] | 1.2 |  |
| COc1cc2c(cc1CC=C(C)C)C(=O)C[C@@H](c1ccc(O)cc1)O2 [Bavachinin] | 20.3 |  |
| CC(N)=O [Acetamide] | -2.6 |  |
| C/C=C(/C)C(=O)O[C@H]1[C@H](OC(C)=O)[C@@]2(CO)C(CC1(C)C)C1=CCC3[C@@]4(C)CC[C@H](O[C@@H]5O[C@H](C(=O)O)[C@@H](O[C@@H]6O[C@H](CO)[C@@H](O)[C@H](O)[C@H]6O)[C@H](O)[C@H]5O[C@@H]5O[C@H](CO)[C@@H](O)[C@H](O)[C@H]5O)[C@](C)(CO)C4CC[C@@]3(C)[C@]1(C)C[C@H]2O (stereo partly shown) [Saponins] | -0.4 |  |
| CC(C)=CC[C@]12Oc3cc(O)c([C@H]4C=C(C)C[C@H](c5ccc(O)cc5O)[C@H]4C(=O)c4ccc(O)cc4O)c(O)c3C(=O)[C@@]1(O)Oc1cc(O)ccc12 [Sanggenon C] | -9.1 |  |
| COc1ccc(-c2cc(=O)c3c(O)cc(O)cc3o2)cc1O [Diosmetin] | 2.2 |  |
| CC1(C)Oc2cc3oc(=O)ccc3cc2CC1O (racemic) [(±)-Decursinol] | -1 |  |
| CCCCCCCCCC(C)O (stereo not shown) [2-Undecanol] | 0.6 |  |
| OCC1CCCCO1 (stereo not shown) [2-Hydroxymethyltetrahydropyran] | 0 |  |
| CC(=O)N[C@@H](CC(C)C)C(=O)O [N-Acetyl-L-leucine] | 0.2 |  |
| C=CC[S+]([O-])C[C@H](N)C(=O)O (stereo partly shown) [Alliin] | 0 |  |
| Nc1nc(=O)c2nc(CNc3ccc(C(=O)N[C@@H](CCC(=O)O)C(=O)O)cc3)cnc2[nH]1 [Folic acid] | 0.4 |  |
| COc1cc(-c2cc(=O)c3c(O)c(OC)c(O)cc3o2)cc(O)c1OC [5,7,3'-Trihydroxy-6,4',5'-trimethoxyflavone] | 0 |  |
| O=C(O)c1c[nH]c2ccccc12 [Indole-3-carboxylic acid] | -1.3 |  |
| O=C(O[C@@H]1Cc2c(O)cc(O)cc2O[C@@H]1c1cc(=O)c(O)c2c(O)c(O)cc([C@H]3Oc4cc(O)cc(O)c4C[C@H]3O)c2c1)c1cc(O)c(O)c(O)c1 [Theaflavin-3-gallate] |  | -0.8 |
| CCCCCCCC(=O)O[C@H](CC(=O)[O-])C[N+](C)(C)C [L-Octanoylcarnitine] | -0.3 |  |
| CC(C)(O)[C@@H]1Cc2cc3ccc(=O)oc3cc2O1 [S-(+)-Marmesin] | -0.1 |  |
| C=C1CC[C@]2(C)CC[C@]3(C)[C@H](CC[C@@H]4[C@@]5(C)CC[C@H](O)C(C)(C)[C@@H]5CC[C@]43C)[C@H]2[C@@H]1C [Taraxasterol] | 9.1 |  |
| COc1ccc(C=O)c(O)c1 [2-Hydroxy-4-methoxybenzaldehyde] | 2.9 |  |
| Nc1cc(C(=O)O)ccc1O [3-Amino-4-hydroxybenzoic acid] | -0.5 |  |

In the list so far, 3 contain a carbonyl joined to an NH by a bond outside any ring:

| Structure (SMILES) | OC43 Inhibition rate [%] | OC43 Inhibition rate (OC43 Inhibition rate, 24 h) [%] |
| --- | --- | --- |
| CC(N)=O [Acetamide] | -2.6 |  |
| CC(=O)N[C@@H](CC(C)C)C(=O)O [N-Acetyl-L-leucine] | 0.2 |  |
| Nc1nc(=O)c2nc(CNc3ccc(C(=O)N[C@@H](CCC(=O)O)C(=O)O)cc3)cnc2[nH]1 [Folic acid] | 0.4 |  |

(next part)

| Structure (SMILES) | OC43 Inhibition rate [%] | OC43 Inhibition rate (OC43 Inhibition rate, 24 h) [%] |
| --- | --- | --- |
| O=C(O)CCCCCCC(=O)O [Suberic acid] | -1.4 |  |
| OC[C@H]1O[C@@](CO)(OC[C@@]2(OC[C@@]3(OC[C@@]4(OC[C@@]5(O[C@H]6O[C@H](CO)[C@@H](O)[C@H](O)[C@H]6O)O[C@H](CO)[C@@H](O)[C@@H]5O)O[C@H](CO)[C@@H](O)[C@@H]4O)O[C@H](CO)[C@@H](O)[C@@H]3O)O[C@H](CO)[C@@H](O)[C@@H]2O)[C@@H](O)[C@@H]1O [1,1,1,1-Kestohexaose] | 2.3 |  |
| COc1cc(-c2coc3cc(O)c(OC)c(O)c3c2=O)cc(O)c1OC [Irigenin] | -0.2 |  |
| O=Cc1ccc(CO)o1 [5-Hydroxymethylfurfural] | -0.2 |  |
| CCCCCCc1cccs1 [2-Hexylthiophene] | 1.7 |  |
| O=C(/C=C/c1ccc(O)c(O)c1)O[C@H]1[C@H](O)C[C@](O)(C(=O)O)C[C@H]1OC(=O)/C=C/c1ccc(O)c(O)c1 [3,4-Dicaffeoylquinic acid] | 6.5 |  |
| CC1(C)Oc2cc3oc(-c4cc(O)cc(O[C@@H]5OC[C@@H](O)[C@H](O)[C@H]5O)c4)cc3cc2CC1O (stereo partly shown) [Mulberroside C] | 5.8 |  |
| CC/C=C\C/C=C\C/C=C\CCCCCCCC(=O)OCC [Ethyl linolenate] | -0.4 |  |
| N[C@@H](CCSSCC[C@H](N)C(=O)O)C(=O)O [L-Homocystine] | -1.2 |  |
| Nc1ncnc2c1ncn2[C@H]1C[C@H](O)[C@@H](COP(=O)(O)OP(=O)(O)OP(=O)(O)O)O1 [2'-Deoxyadenosine-5'-triphosphate (trisodium)] | 9.3 |  |
| C[C@H](CC[C@@H](O[C@@H]1O[C@H](CO[C@@H]2O[C@H](CO)[C@@H](O)[C@H](O)[C@H]2O)[C@@H](O)[C@H](O)[C@H]1O)C(C)(C)O)[C@H]1CC[C@@]2(C)[C@@H]3CC=C4[C@@H](CC[C@H](O)C4(C)C)[C@]3(C)[C@H](O)C[C@]12C [Mogroside IIA1] | -0.4 |  |
| COc1cc(/C=C/C(O)=C/C(=O)/C=C/c2ccc(O)cc2)ccc1O [Demethoxycurcumin] | 6.8 |  |
| CC(=O)OC[C@]12[C@H](OC(C)=O)[C@H](OC(C)=O)[C@@H]3[C@@H](OC(C)=O)[C@@]14O[C@@]3(C)COC(=O)c1cccnc1CCC(C)C(=O)O[C@@H]([C@H](OC(=O)c1ccco1)[C@@H]2OC(C)=O)[C@]4(C)O (stereo partly shown) [Wilforgine] | 0.7 |  |
| CN1CCC=C(C(=O)O)C1 [Arecaidine (hydrochloride)] |  | -0.1 |
| COc1cc(C[C@H](C)[C@H](C)Cc2ccc3c(c2)OCO3)ccc1O [Macelignan] | 2 |  |
| COC(=O)C1=CO[C@@H](O[C@@H]2O[C@H](CO)[C@@H](O)[C@H](O)[C@H]2O)[C@@H]2C(CO)=C[C@H](O)[C@H]12 [Methyl deacetylasperulosidate] | -2.3 |  |
| N[C@@H](CS)C(=O)O [L-Cysteine] |  | 0.9 |
| O=C(O)/C=C/c1ccccc1 [Cinnamic acid] |  | 1.6 |
| COc1cccc(-c2oc3ccccc3c(=O)c2O)c1 [3'-Methoxyflavonol] | -2 |  |
| C[C@@H]1O[C@@H](Oc2c(-c3cc(O)c(O)c(O)c3)oc3cc(O)cc(O)c3c2=O)[C@H](O)[C@H](O)[C@H]1O [Myricitrin] | 0.2 |  |
